Values from PubChem BioAssay AID1224826 (NIAID, 2016)

Screen: 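Regulators of Tlr4 signalling leading to Tnf-alpha expression in macrophages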 (primary screen)
Cells: RAW264.7 G9 macrophages from mouse bearing reporters for p65 (GFP) and the Tnf promoter (mCherry)
Reagent: siRNA pool against mouse genes, 100 nM
Duration: 16 h of LPS stimulation, after 2 days of siRNA transfection
Treatment: bacterial lipopolysaccharide (Salmonella minnesota R595), 10 ng/ml
Read-out: 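Imaged Tnf reporter mCherry in nuclei, minus background, normalised per plate to the median and expressed as robust z-scores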
Scale: Tnf reporter robust z-score: higher = stronger Tnf promoter reporter signal after LPS; Tnf reporter intensity: higher = stronger Tnf promoter reporter signal
Call rule: 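Called active when robust z-score is at most -1.3, matching the median of the Tlr4 knock-down control, or over 3; control wells and wells with under 50 cells never active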
Meaning of the calls: active = Tnf reporter clearly lowered or raised; inactive = no clear change in Tnf reporter
This is a random part of about 17,000 reagents tested. Over the whole deposit, about 1,110 (6.6%) are marked active. 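Active means lowered or raised reporter signal; replicate intensities are raw and not normalised per plate.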 The numbers tell different reagents against one gene apart.

| Target gene | reagent | Tnf reporter robust z-score | fewer than 50 cells in well | Tnf reporter intensity, replicate 1 | Tnf reporter intensity, replicate 2 | call |
| --- | --- | --- | --- | --- | --- | --- |
| Psmd8 | 1 | -1.66 | enough cells in well | 113 | 112 | active |
| Pmp22 | 1 | -0.36 | enough cells in well | 224 | 162 | inactive |
| Srsf5 | 1 | 2.63 | enough cells in well | 157 | 227 | inactive |
| Wnk3 | 1 | 0.35 | enough cells in well | 271 | 132 | inactive |
| Mpo | 1 | 0.43 | enough cells in well | 229 | 296 | inactive |
| Tmem150c | 1 | 2.81 | enough cells in well | 214 | 219 | inactive |
| Traf5 | 1 | -0.16 | enough cells in well | 237 | 194 | inactive |
| Sec22a | 1 | 0.39 | enough cells in well | 128 | 99.7 | inactive |
| H2-M9 | 1 | -0.18 | enough cells in well | 262 | 133 | inactive |
| 5330438I03Rik | 1 | -0.54 | enough cells in well | 128 | 136 | inactive |
| Mpp4 | 1 | -0.09 | enough cells in well | 172 | 130 | inactive |
| St6galnac3 | 1 | – | fewer than 50 cells per well; well left out of calls | 51.8 | 41.1 | inactive |
| Tpm3 | 1 | – | fewer than 50 cells per well; well left out of calls | 97.9 | 81.5 | inactive |
| Tnfsf9 | 1 | – | fewer than 50 cells per well; well left out of calls | 14.6 | 43.6 | inactive |
| Edar | 1 | -0.64 | enough cells in well | 198 | 161 | inactive |
| Pde12 | 1 | -0.06 | enough cells in well | 173 | 119 | inactive |
| Slc22a12 | 1 | 1.95 | enough cells in well | 353 | 243 | inactive |
| Spred2 | 1 | 4.23 | enough cells in well | 326 | 164 | active |
| Sys1 | 1 | -0.28 | enough cells in well | 232 | 61.9 | inactive |
| Casr | 1 | -0.47 | enough cells in well | 182 | 246 | inactive |
| Slc16a1 | 1 | 0.61 | enough cells in well | 287 | 158 | inactive |
| Cdh20 | 1 | -0.16 | enough cells in well | 237 | 193 | inactive |
| Blzf1 | 1 | 1.46 | enough cells in well | 184 | 287 | inactive |
| Dusp12 | 1 | -0.79 | enough cells in well | 169 | 153 | inactive |
| Hsd17b12 | 1 | -0.26 | enough cells in well | 237 | 154 | inactive |
| Wwc2 | 1 | 1.26 | enough cells in well | 285 | 248 | inactive |
| Rab11fip1 | 1 | -0.12 | enough cells in well | 157 | 146 | inactive |
| Egln1 | 1 | -2.02 | enough cells in well | 65.5 | 54 | active |
| Vmn1r234 | 1 | – | fewer than 50 cells per well; well left out of calls | 104 | 90.5 | inactive |

Next part, starting with the last 2 of the part before.
| Target gene | reagent | Tnf reporter robust z-score | fewer than 50 cells in well | Tnf reporter intensity, replicate 1 | Tnf reporter intensity, replicate 2 | call |
| --- | --- | --- | --- | --- | --- | --- |
| Egln1 | 1 | -2.02 | enough cells in well | 65.5 | 54 | active |
| Vmn1r234 | 1 | – | fewer than 50 cells per well; well left out of calls | 104 | 90.5 | inactive |
| Fign | 1 | 0.3 | enough cells in well | 329 | 112 | inactive |
| Ptf1a | 1 | -1.78 | enough cells in well | 15.2 | 46.4 | active |
| Oas1e | 1 | -0.78 | enough cells in well | 150 | 101 | inactive |
| Or5b24 | 1 | -0.23 | enough cells in well | 161 | 115 | inactive |
| Vmn1r45 | 1 | 0.48 | enough cells in well | 124 | 116 | inactive |
| Scly | 1 | – | fewer than 50 cells per well; well left out of calls | 132 | 47.5 | inactive |
| Or4a81 | 1 | 0.92 | enough cells in well | 302 | 112 | inactive |
| Psmc5 | 1 | – | fewer than 50 cells per well; well left out of calls | 0 | 67.6 | inactive |
| Sumo2 | 1 | -0.93 | enough cells in well | 75.5 | 50 | inactive |
| Phldb1 | 1 | 1.64 | enough cells in well | 326 | 224 | inactive |
| Vps13c | 1 | 1.24 | enough cells in well | 157 | 121 | inactive |
| Kdsr | 1 | 0.19 | enough cells in well | 315 | 212 | inactive |
| Tesk1 | 1 | 1.78 | enough cells in well | 270 | 221 | inactive |
| Or52h2 | 1 | 1.87 | enough cells in well | 151 | 204 | inactive |
| Tmem43 | 1 | -1.02 | enough cells in well | 143 | 33.6 | inactive |
| Ash1l | 1 | 0.13 | enough cells in well | 121 | 211 | inactive |
| Lsm11 | 1 | 0.97 | enough cells in well | 188 | 248 | inactive |
| Mmd | 1 | 1.69 | enough cells in well | 314 | 190 | inactive |
| F630111L10Rik | 1 | 0.21 | enough cells in well | 222 | 174 | inactive |
| A130014H13Rik | 1 | -0.19 | enough cells in well | 149 | 155 | inactive |
| Acads | 1 | 0.35 | enough cells in well | 190 | 187 | inactive |
| Map3k10 | 1 | -0.33 | enough cells in well | 172 | 96.1 | inactive |
| Vmn1r85 | 1 | -1.14 | enough cells in well | 74.8 | 38.3 | inactive |
| Nol3 | 1 | -1.22 | enough cells in well | 129 | 117 | inactive |
| Cox7a2 | 1 | 0.35 | enough cells in well | 180 | 225 | inactive |
| Pdyn | 1 | 0.48 | enough cells in well | 165 | 160 | inactive |
| 4932414J04Rik | 1 | – | fewer than 50 cells per well; well left out of calls | 395 | 105 | inactive |
| Lgi3 | 1 | 1.82 | enough cells in well | 308 | 234 | inactive |
| Btnl10 | 1 | -0.12 | enough cells in well | 106 | 159 | inactive |
| Lilra6 | 1 | 0.42 | enough cells in well | 153 | 95.9 | inactive |
| Ms4a6d | 1 | -0.35 | enough cells in well | 203 | 91.9 | inactive |
| Ms4a6d | 2 | 0.64 | enough cells in well | 211 | 165 | inactive |
| Esrra | 1 | 0.05 | enough cells in well | 208 | 262 | inactive |
| Atp6v1g1 | 1 | 0.47 | enough cells in well | 206 | 183 | inactive |
| Or5an6 | 1 | 0.84 | enough cells in well | 263 | 133 | inactive |
| Efna1 | 1 | 0.18 | enough cells in well | 271 | 215 | inactive |
| Arhgap9 | 1 | 0.7 | enough cells in well | 218 | 196 | inactive |
| Slc6a13 | 1 | – | fewer than 50 cells per well; well left out of calls | 66.6 | 51.1 | inactive |
| Coro7 | 1 | 2.03 | enough cells in well | 363 | 152 | inactive |
| Rbpms | 1 | 0.27 | enough cells in well | 153 | 126 | inactive |
| Yipf5 | 1 | 3.77 | enough cells in well | 520 | 174 | active |
| Higd2a | 1 | – | fewer than 50 cells per well; well left out of calls | 140 | 64.2 | inactive |
| Zdhhc2 | 1 | 0.78 | enough cells in well | 139 | 177 | inactive |
| Fam184b | 1 | -0.05 | enough cells in well | 130 | 192 | inactive |
| Slc25a31 | 1 | – | fewer than 50 cells per well; well left out of calls | 141 | 44.6 | inactive |
| Sstr3 | 1 | – | fewer than 50 cells per well; well left out of calls | 169 | 31.1 | inactive |
